Data from article PMC9599704 (Biomolecules, 2022).
Strings that start with PEPTIDE1 are HELM notation: dots part the residues, brackets hold end groups and non-standard residues.

Test: peptide synthesis
Details: lipidation step

## PEPTIDE1{[pGlu].L.Y.S.A.L.A.N.K.C.C.H.V.G.C.T.K.R.S.L.A.R.F.C}|PEPTIDE2{[Pal].[gGluOtBu].D.S.W.M.E.E.V.I.K.L.C.G.R.E.L.V.R.A.Q.I.A.I.C.G.M.S.T.W.S}$PEPTIDE1,PEPTIDE1,10:R3-15:R3|PEPTIDE1,PEPTIDE2,11:R3-13:R3|PEPTIDE1,PEPTIDE2,24:R3-25:R3$$$V2.0
HPLC
  final HPLC purity: > 98%
Relative to RLX2
  step yield: 30–35%
